In the supplement of paper PMC11006884:
This is a selection; strong and weak results do not stand in their true shares.

Sequences of proteins named here, by UniProt entry; tags and fusion partners are left off. A change or cut given only in a name is not applied to a line headed by its entry.
UniProt P25705: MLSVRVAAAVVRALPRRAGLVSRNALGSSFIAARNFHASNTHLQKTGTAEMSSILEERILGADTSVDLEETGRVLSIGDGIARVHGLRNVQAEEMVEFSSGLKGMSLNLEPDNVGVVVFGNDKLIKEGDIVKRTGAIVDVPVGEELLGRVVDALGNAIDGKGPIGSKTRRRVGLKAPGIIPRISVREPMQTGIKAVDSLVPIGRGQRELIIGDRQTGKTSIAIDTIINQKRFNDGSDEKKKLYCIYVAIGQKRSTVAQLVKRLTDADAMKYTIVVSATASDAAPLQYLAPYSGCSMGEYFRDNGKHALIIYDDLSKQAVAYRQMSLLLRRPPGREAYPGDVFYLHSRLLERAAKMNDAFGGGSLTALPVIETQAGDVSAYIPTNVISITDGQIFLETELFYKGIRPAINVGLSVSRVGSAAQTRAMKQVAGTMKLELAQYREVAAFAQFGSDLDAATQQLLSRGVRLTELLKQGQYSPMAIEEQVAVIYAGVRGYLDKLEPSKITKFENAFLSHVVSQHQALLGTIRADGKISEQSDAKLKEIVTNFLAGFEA
UniProt P17987, whole entry, looked up: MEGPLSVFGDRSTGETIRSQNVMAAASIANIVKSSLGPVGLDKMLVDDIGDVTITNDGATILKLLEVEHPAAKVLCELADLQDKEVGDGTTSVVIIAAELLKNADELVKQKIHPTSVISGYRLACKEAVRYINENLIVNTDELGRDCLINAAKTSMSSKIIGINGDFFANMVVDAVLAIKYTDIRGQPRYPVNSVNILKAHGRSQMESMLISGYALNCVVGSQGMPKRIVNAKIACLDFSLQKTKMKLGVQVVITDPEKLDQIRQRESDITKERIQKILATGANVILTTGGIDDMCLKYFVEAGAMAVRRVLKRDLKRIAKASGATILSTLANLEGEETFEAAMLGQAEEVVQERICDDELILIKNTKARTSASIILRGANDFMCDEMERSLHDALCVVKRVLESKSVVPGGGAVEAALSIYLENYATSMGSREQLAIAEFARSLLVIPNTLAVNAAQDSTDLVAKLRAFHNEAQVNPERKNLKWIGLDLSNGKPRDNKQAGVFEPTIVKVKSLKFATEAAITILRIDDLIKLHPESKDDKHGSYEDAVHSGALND
UniProt P26358: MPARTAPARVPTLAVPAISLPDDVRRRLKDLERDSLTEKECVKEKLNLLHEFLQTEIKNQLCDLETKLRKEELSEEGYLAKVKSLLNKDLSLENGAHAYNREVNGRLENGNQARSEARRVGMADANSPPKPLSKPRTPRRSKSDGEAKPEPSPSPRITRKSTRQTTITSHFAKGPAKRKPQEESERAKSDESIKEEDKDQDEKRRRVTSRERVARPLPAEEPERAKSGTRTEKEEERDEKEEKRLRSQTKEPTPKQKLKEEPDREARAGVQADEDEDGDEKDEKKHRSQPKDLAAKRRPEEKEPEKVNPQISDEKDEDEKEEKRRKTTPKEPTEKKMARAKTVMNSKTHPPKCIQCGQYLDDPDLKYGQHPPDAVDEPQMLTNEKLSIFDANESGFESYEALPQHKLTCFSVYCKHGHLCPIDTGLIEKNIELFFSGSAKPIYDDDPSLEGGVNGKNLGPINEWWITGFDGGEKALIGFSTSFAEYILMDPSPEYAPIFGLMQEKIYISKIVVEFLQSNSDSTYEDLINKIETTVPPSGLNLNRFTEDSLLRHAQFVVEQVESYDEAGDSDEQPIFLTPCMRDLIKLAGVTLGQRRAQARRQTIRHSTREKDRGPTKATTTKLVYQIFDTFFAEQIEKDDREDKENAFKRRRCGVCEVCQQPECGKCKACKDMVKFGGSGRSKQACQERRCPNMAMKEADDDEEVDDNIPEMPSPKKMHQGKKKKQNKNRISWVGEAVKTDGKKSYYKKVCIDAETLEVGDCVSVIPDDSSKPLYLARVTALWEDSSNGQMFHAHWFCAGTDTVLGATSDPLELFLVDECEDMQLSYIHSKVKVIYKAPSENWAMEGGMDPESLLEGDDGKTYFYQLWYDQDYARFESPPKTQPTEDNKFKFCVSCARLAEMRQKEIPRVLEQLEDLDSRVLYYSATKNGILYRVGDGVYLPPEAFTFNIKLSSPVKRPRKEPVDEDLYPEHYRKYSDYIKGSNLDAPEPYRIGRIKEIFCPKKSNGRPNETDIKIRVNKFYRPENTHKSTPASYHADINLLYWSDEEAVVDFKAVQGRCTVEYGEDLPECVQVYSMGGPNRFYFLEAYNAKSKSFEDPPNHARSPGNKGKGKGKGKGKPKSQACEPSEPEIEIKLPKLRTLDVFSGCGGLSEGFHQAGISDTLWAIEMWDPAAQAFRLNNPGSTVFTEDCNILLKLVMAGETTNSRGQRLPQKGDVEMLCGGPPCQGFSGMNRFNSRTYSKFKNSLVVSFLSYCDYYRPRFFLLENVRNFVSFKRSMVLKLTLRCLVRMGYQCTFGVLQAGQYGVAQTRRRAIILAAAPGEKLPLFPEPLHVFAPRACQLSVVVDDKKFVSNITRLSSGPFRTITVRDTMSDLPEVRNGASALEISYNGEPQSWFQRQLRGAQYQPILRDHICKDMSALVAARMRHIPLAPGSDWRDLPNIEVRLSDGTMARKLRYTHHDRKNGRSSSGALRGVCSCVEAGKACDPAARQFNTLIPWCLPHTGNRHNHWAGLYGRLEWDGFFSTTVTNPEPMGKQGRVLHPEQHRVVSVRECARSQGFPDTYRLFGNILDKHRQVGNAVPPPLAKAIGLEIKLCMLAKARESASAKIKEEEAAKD
UniProt P29590: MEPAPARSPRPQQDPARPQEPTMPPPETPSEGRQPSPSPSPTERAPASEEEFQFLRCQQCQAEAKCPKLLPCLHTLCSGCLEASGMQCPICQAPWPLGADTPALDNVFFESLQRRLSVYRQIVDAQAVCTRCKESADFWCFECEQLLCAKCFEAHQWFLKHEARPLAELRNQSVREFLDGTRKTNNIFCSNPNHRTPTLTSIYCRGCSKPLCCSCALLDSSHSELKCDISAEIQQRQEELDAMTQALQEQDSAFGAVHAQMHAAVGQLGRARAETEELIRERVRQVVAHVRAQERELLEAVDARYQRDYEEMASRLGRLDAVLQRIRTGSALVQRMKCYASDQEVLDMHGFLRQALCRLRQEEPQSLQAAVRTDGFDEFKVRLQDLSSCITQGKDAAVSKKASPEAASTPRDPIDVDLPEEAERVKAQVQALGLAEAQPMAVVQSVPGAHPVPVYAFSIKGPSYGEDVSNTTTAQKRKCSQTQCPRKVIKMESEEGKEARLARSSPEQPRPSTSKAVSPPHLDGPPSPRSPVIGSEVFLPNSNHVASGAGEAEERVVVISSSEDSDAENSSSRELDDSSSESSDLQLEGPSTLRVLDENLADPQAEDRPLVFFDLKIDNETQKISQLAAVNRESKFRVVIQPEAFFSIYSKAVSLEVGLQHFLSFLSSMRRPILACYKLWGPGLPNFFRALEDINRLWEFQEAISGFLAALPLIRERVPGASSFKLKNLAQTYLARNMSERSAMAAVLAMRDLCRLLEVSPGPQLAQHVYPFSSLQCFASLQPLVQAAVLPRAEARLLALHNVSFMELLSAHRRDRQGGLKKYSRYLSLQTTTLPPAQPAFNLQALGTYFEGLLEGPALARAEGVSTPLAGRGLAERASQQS
UniProt P23919: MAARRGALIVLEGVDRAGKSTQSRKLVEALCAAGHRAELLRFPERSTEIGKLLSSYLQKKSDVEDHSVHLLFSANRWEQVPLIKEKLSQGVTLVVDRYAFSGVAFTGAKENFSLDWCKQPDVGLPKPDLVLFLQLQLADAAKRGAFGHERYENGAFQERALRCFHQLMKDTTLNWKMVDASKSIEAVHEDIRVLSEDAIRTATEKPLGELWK
UniProt P22102: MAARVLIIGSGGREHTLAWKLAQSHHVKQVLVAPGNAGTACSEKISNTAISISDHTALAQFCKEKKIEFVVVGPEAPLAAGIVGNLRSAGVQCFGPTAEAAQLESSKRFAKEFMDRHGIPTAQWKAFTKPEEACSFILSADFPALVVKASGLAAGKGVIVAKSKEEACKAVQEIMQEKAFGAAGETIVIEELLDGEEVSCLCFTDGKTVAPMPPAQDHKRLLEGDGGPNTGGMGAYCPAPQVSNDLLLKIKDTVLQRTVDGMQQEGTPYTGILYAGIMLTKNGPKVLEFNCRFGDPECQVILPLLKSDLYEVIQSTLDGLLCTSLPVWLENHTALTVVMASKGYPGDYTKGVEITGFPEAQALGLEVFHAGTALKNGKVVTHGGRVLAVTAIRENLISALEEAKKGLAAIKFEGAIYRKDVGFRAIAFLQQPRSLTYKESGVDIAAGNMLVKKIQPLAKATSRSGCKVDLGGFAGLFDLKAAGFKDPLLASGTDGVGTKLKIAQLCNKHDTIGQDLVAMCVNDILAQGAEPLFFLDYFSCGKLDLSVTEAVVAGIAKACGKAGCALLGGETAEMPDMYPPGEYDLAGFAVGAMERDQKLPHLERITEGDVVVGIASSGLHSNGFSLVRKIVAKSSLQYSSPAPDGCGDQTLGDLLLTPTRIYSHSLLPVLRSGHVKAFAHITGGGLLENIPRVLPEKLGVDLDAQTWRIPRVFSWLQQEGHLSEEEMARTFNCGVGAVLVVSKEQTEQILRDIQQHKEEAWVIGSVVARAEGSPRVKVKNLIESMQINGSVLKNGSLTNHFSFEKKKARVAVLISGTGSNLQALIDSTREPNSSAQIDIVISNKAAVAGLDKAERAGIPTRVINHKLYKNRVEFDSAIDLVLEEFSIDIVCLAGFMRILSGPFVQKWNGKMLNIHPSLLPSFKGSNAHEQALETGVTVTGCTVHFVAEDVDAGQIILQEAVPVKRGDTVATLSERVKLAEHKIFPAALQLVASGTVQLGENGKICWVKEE
UniProt P28482, whole entry, looked up: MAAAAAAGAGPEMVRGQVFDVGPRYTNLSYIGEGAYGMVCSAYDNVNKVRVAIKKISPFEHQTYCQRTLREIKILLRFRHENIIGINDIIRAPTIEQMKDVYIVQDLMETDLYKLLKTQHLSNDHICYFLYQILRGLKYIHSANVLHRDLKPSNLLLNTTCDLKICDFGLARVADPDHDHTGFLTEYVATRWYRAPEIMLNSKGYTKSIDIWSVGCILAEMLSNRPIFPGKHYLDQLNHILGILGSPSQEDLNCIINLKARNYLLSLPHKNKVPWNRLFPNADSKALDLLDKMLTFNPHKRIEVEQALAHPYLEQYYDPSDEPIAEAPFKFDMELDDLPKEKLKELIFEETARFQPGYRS
UniProt P19838: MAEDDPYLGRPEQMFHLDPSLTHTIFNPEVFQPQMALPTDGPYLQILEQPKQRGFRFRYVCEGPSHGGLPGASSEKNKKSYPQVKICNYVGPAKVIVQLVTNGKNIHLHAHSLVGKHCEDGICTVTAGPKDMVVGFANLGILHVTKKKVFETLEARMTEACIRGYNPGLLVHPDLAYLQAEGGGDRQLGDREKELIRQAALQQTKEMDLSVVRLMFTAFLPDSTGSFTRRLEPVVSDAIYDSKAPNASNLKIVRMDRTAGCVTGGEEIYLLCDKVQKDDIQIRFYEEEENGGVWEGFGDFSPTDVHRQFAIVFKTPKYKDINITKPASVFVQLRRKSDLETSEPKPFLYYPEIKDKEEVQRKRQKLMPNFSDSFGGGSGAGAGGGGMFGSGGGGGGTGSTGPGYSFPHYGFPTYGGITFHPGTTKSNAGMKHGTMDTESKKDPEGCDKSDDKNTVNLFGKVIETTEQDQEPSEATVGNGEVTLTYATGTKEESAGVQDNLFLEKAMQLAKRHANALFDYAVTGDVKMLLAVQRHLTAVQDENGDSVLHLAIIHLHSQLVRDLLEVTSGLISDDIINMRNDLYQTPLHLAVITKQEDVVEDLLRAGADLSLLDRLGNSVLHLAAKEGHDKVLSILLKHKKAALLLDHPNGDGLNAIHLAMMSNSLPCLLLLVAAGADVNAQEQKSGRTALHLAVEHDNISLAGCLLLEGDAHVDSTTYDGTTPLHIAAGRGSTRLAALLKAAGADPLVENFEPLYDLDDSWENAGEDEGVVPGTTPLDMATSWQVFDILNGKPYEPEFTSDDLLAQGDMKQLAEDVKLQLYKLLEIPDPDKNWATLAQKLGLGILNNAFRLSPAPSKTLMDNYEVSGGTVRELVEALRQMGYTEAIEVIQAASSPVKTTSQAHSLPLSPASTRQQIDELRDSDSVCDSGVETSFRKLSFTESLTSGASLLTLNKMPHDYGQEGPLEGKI
UniProt P22830: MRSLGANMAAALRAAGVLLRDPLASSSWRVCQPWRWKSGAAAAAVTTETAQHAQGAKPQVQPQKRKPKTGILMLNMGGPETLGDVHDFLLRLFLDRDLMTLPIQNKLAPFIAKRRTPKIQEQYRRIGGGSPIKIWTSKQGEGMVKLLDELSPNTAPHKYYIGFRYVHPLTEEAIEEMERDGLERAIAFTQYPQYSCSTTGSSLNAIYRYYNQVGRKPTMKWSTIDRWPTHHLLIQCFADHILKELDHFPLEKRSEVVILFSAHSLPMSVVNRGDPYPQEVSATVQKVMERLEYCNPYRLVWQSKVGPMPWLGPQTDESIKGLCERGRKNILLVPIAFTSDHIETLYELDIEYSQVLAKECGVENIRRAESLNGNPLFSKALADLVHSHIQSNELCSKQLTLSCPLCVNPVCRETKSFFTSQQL

Compound: COC(=O)C#Cc1ccccc1 [methyl 3-phenylpropiolate]
Test: log2 ratio of iodoacetamide-alkyne labeling of the cysteine site, DMSO over compound (competition); higher = stronger covalent engagement of the cysteine by the compound, active = 1 or more
Details: 500 µM; treatment time 1 h; system: HEK293T cell lysate
In short: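 After 1 h at ambient temperature with vehicle or electrophile (500 µM), HEK293T lysate (2 mg/mL) was labelled for 1 h with iodoacetamide alkyne and clicked to sCIP-TMT reagents. Pooled samples were trypsin-digested overnight at 37 °C, streptavidin-enriched, acid-eluted and analysed by Orbitrap Eclipse LC-MS/MS with FAIMS, then quantified in FragPipe over three replicates with duplicate channels. A cysteine's log2 competition ratio is its mean control-channel over mean compound-channel reporter intensity. Cysteines quantified in only one replicate were not included.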

Target	log2 ratio of iodoacetamide-alkyne labeling
UniProt P25398_C106	inactive: -0.0453
PRDX5 C100 (UniProt P30044)	inactive: 0.466
YWHAQ C94 (UniProt P27348)	inactive: 0.0617
UniProt P25705_C294	inactive: 0.133
TCP1 C397 (UniProt P17987)	inactive: 0.159
UniProt P28066_C76	inactive: -0.0535
DNMT1 C580 (UniProt P26358)	inactive: 0.279
UniProt P25398_C56	inactive: -0.109
SON C2380 (UniProt P18583)	inactive: 0.383
CAD C1636 (UniProt P27708)	inactive: 0.128
CAST C661 (UniProt P20810)	inactive: 0.385
PAICS C81 (UniProt P22234)	inactive: 0.248
TCP1 C218 (UniProt P17987)	inactive: 0.0267
PML C389 (UniProt P29590)	inactive: 0.237
MSH3 C166 (UniProt P20585)	inactive: 0.296
LIG1 C508 (UniProt P18858)	inactive: 0.147
CAST C328 (UniProt P20810)	inactive: 0.06
ERP29 C157 (UniProt P30040)	inactive: -0.0314
DTYMK C163 (UniProt P23919)	inactive: 0.131

A few values from above.
LIG1 C508 (UniProt P18858) – log2 ratio of iodoacetamide-alkyne labeling: inactive: 0.147
TCP1 C218 (UniProt P17987) – log2 ratio of iodoacetamide-alkyne labeling: inactive: 0.0267
YWHAQ C94 (UniProt P27348) – log2 ratio of iodoacetamide-alkyne labeling: inactive: 0.0617

(further entries)

Target	log2 ratio of iodoacetamide-alkyne labeling
PTPN1 C32 (UniProt P18031)	inactive: 0.0778
RPL10 C195 (UniProt P27635)	inactive: 0.694
CHML C582 (UniProt P26374)	inactive: -0.0416
VDAC1 C127 (UniProt P21796)	inactive: 0.0443
GART C237 (UniProt P22102)	inactive: 0.417
APEX1 C99 (UniProt P27695)	inactive: 0.0226
TCP1 C296 (UniProt P17987)	inactive: 0.00301
BTF3 C22 (UniProt P20290)	inactive: 0.972
UniProt P28482_C254	inactive: -0.0158
CAD C252 (UniProt P27708)	inactive: 0.0601
DNMT1 C751 (UniProt P26358)	inactive: 0.299
DCK C9 (UniProt P27707)	active: 1.15
NFKB1 C925 (UniProt P19838)	inactive: 0.193
NCL C543 (UniProt P19338)	inactive: 0.323
UniProt P21127_C440	inactive: 0.363
PLCG1 C976 (UniProt P19174)	active: 1.9
FECH C411 (UniProt P22830)	inactive: 0.319
RRM1 C352 (UniProt P23921)	inactive: 0.357
